Values quoted from earlier work, collected in patent publication US7146278B2, “Method of selecting marker molecules for prediction of molecular activity” (Accelrys Software Inc., priority 2001, dated 2006).

Tested on: serum proteins
Conditions: cited from earlier work

## CN1C(=O)CN=C(c2ccccc2)c2cc(Cl)ccc21 [DIAZEPAM]
Example training set of ten molecules
  % Protein Bound: 98.7%
Marker molecules, training set from Goodman & Gilman 9th ed.
  % PB: 98.7%
